The match of structure and compound is tentative.
Assays:
human p38 kinase alpha = human p38 kinase alpha (Homo sapiens, UniProt Q16539); test: p38 kinase in vitro assay, phosphorylation of biotinylated PHAS-I with 32P-ATP; type: biochemical; details: read-out: P38 alpha kinase IC50
[1] = system: TNF-α, U937 human histiocytic lymphoma cell line; test: LPS stimulation of TNF production by U937 cells; type: cell-based; details: read-out: U937 Cell IC50, human U937 cells stimulated with LPS

By UniProt entry, the sequences of proteins in these tests, tags left out.
UniProt Q16539, whole entry: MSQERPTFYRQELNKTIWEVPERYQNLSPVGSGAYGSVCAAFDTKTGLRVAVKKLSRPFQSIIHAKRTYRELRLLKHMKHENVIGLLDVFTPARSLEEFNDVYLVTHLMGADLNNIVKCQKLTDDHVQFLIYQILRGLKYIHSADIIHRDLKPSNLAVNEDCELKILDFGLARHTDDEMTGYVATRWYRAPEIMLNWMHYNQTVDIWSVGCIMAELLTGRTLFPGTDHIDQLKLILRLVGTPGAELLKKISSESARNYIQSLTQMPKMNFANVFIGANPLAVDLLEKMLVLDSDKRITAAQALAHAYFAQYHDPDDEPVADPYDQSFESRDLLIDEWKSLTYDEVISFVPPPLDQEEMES

IC50 (human p38 kinase alpha): 560 nM
IC50 [1]: > 1000 nM
SMILES: CN(C)C(=O)NCc1[nH]nc(-c2ccc(F)cc2)c1-c1ccncc1
